Data from patent US20230033021A1, “TREATMENT OF A DISEASE OF THE GASTROINTESTINAL TRACT WITH AN INTEGRIN INHIBITOR” (Progenity, Inc., priority 2018, published 2023).

Tested on: IL-6
Conditions: all IC treated groups and high dose PO group (45 mg/kg)

**Q.** With `C[C@@H]1CCN(C(=O)CC#N)C[C@@H]1N(C)c1ncnc2[nH]ccc12.O=C(O)CC(O)(CC(=O)O)C(=O)O` [tofacitinib citrate] as the molecule, how does the “inhibition of IL-6 expression in colon tissue” value read?
**A.** Its value is “sustained through 24 h”.
